The other results are listed elsewhere or left out. Most entries show no effect beyond the scatter of the controls.
System: ppGalNAc-T2 sensor
Assay: T2 sensor activation Q score (MG/GFP ratio z-score vs DMSO controls) (SD units); higher = more sensor activation (inhibition of ppGalNAc-T2 glycosylation)
Conditions: HEK293 sensor cells; 10 µM; 6 h
Procedure: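 Cells were treated with compound at 10 uM for 6 h, then MG/GFP ratio was read by flow cytometry (10,000 cells per well, duplicate wells). Q = (R - R_neg)/SD_neg relative to DMSO vehicle controls; the signal rises when the glycosyltransferase is inhibited.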

| Structure (SMILES) | T2 sensor activation Q score |
| --- | --- |
| COc1ccc(CN2CCN(c3ccc(Cl)cc3)CC2)cc1OC | -0.22 |
| Cc1cccc(N2CCN(Cc3ccc4c(c3)OCO4)CC2)c1C | -0.65 |
| Fc1ccccc1N1CCN(Cc2cccc(Cl)c2)CC1 | -0.16 |
| Fc1ccc(CN2CCN(c3ccccc3F)CC2)cc1F | 0.32 |
| CN1CCN(Cc2ccc[nH]2)CC1 | -0.065 |
| CCOc1ccccc1CN1CCN(c2ccccc2)CC1 | -0.06 |
| CCN1CCN(Cc2ccc(OC)c(OC)c2)CC1 | 0.34 |
| COc1ccc(CN2CCN(C)CC2)cc1OC | 0.46 |
| COc1ccc(CN2CCN(c3ccccc3C)CC2)cc1 | -0.365 |
| Cc1ccccc1N1CCN(Cc2cccc(F)c2)CC1 | -0.535 |
| COc1ccccc1N1CCN(Cc2ccc(Cl)cc2)CC1 | 0.8 |
| Cc1ccccc1CN1CCN(c2ccc(F)cc2)CC1 | -0.195 |
| COc1cccc(CN2CCN(C)CC2)c1 | -0.415 |
| Cc1ccccc1N1CCN(Cc2cccc(Cl)c2)CC1 | 0.655 |
| O=[N+]([O-])c1ccc(NCCO)c2ncccc12 | -0.76 |
| O=c1cccc2n1C[C@H]1C[C@H]2CN(Cc2cccc(F)c2)C1 | -0.31 |
| CCOc1ccccc1N1CCN(Cc2cccc(OC)c2)CC1 | -0.33 |

Some of the entries so far, tab-delimited:
Structure (SMILES)	T2 sensor activation Q score
COc1ccccc1N1CCN(Cc2ccc(Cl)cc2)CC1	0.8
Cc1ccccc1CN1CCN(c2ccc(F)cc2)CC1	-0.195
COc1cccc(CN2CCN(C)CC2)c1	-0.415

(list continues)

| Structure (SMILES) | T2 sensor activation Q score |
| --- | --- |
| Cc1ccsc1CN1CCN(C)CC1 | -0.01 |
| CN1CCN(Cc2ccc(N(C)C)cc2)CC1 | -0.49 |
| Cc1ccccc1N1CCN(Cc2ccc(N(C)C)cc2)CC1 | -1.14 |
| COc1ccc(Br)cc1CN1CCN(C)CC1 | 0.06 |
| CCN1CCN(Cc2c(Cl)cccc2Cl)CC1 | 0.395 |
| CCOc1ccccc1CN1CCN(c2ccccc2OC)CC1 | 0.245 |
| Fc1ccccc1N1CCN(Cc2ccccc2Cl)CC1 | -0.4 |
| Oc1c(Cl)cc(-c2cc(Cl)c(O)c(Cl)c2)cc1Cl | 0.4 |
| Cc1ccccc1CN1CCN(c2cccc(Cl)c2)CC1 | 0.275 |
| COc1ccccc1N1CCN(Cc2cc(C)ccc2C)CC1 | 0.775 |
| CN1CCN(Cc2ccc3c(c2)OCO3)CC1 | -1.16 |
| Cc1ccccc1N1C(=O)CC(=O)NC1=O | -0.57 |
| COc1ccc(CN2CCN(c3ccccc3)CC2)cc1O | 0 |
| O=[N+]([O-])c1ccc(N2CCN(Cc3cccc(Br)c3)CC2)cc1 | 0.155 |
| COc1ccc(N2CCN(Cc3ccc(Br)cc3)CC2)cc1 | 0.35 |
| COc1ccc(N2CCN(Cc3cccc(Cl)c3Cl)CC2)cc1 | 0.87 |
| COc1cccc(CN2CCN(c3ccc(Cl)cc3)CC2)c1OC | -0.225 |
